Source: patent US20200079848A1
No constants are given. Whether binding was seen depends on the method and setting. Some entries that bind do so weakly or less than the wild type.

Amino acid sequences for entries named in this document (tags omitted). A change or cut given only in a name is not applied to a line headed by its entry.
UniProt Q8N423: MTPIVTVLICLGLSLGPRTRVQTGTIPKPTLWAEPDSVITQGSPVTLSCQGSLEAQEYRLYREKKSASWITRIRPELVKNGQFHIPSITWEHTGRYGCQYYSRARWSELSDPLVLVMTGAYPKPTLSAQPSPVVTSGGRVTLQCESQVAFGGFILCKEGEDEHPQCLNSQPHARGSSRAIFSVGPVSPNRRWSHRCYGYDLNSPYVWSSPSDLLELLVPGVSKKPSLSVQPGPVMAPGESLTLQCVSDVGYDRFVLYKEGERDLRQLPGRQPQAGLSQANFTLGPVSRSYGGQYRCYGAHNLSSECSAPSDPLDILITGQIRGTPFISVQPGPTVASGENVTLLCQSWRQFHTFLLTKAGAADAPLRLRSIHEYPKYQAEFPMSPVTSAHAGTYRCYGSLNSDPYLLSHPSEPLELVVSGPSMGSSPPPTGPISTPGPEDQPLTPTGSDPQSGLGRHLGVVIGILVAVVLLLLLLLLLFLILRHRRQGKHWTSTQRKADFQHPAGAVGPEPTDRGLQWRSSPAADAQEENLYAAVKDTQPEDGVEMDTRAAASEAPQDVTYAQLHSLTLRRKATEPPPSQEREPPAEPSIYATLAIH

How the values were obtained:
[1] = target: human ILT4 (hILT4) expressed on cells (human) (UniProt Q8N423); assay: flow cytometry on 293T transfectants, antibody at 20 ug/ml
[2] = target: human ILT4 (hILT4) expressed on cells (human) (UniProt Q8N423); assay: flow cytometry, 293T transfectants, antibody 20 µg/ml; stacked histograms, x axis without numbers, control: parental cells
[3] = target: human ILT4 (hILT4) expressed on cells (human) (UniProt Q8N423); assay: FACS or FMAT, hybridoma supernatant on hILT4-transfected cells against control CHO cells

| binding [1] | binding [2] | binding [3] | Binder |
| --- | --- | --- | --- |
| binds | binds |  | 10F10.IgG1.3 (antibody, V domains shown) VH: QVQLVESGGGVVQPGRSLRLSCAASGFTFSSYAMHWVRQAPGKGLEWVAIISYDEYNKYYADSVKGRFTISRDNSKNTLYLQMNSLRAEDTAVYYCAREWVGIRYWGQGTLVTVSS VL: AIQLTQSPSSLSASVGDRVTITCRASQGISSALAWFQQKPGKAPKLLIYDASSLESGVPSRFTGSGSGTDFTLTISSLQPEDFATYYCQQFNSYPITFGQGTRLEIKR |
|  |  | binds | 24E5.A7 (antibody, V domains shown) VH: EVQLLESGGGLVQPGGSLRLSCAASGFTFSSYVMSWVRQAPGKGLEWVSGISGSGGSTYYADSVKGRFTISRDNSKNTLYLQMNSLRAEDTAVYYCAKDQDIIAAYYFVYWGQGTLVTVSS VL: DIQMTQSPSSLSASVGDRVTITCRASQGISSWLAWYQQKPEKAPKSLIYAASSLQSGVPSRFSGSGSGTDFTLTISSLQPEDFATYYCQQYNSYPLTFGGGTKVEIK |
|  |  | binds | 9C8.A6 (antibody, V domains shown) VH: QVQLVQSGAEVKKPGASVKVSCKASGYTFTSSDINWVRQATGQGLEWMGWMNPNSGHTGYAQKFQDRVTLTRDTSISTAYMELSSLRSEDSAVYYCARGGNSIDWGFSYYGLDVWGQGTTVTVSS VL: AIQLTQSPSSLSASVGDRVTITCRASQGISSALAWYQQKPGKAPKLLIYDASSLESGVPSRFSGSGSGTDFTLTISSLQPEDFATYYCQQFNSYPFTFGPGTKVDIK |
